From publication PMC5421898

Protein sequences, listed by entry. Tags and fused reporters are not part of them. Lines headed by an entry give the natural chain unless they say otherwise; changes in a name come on top. Residues count along the entry.
UniProt P19022, residues 26-906: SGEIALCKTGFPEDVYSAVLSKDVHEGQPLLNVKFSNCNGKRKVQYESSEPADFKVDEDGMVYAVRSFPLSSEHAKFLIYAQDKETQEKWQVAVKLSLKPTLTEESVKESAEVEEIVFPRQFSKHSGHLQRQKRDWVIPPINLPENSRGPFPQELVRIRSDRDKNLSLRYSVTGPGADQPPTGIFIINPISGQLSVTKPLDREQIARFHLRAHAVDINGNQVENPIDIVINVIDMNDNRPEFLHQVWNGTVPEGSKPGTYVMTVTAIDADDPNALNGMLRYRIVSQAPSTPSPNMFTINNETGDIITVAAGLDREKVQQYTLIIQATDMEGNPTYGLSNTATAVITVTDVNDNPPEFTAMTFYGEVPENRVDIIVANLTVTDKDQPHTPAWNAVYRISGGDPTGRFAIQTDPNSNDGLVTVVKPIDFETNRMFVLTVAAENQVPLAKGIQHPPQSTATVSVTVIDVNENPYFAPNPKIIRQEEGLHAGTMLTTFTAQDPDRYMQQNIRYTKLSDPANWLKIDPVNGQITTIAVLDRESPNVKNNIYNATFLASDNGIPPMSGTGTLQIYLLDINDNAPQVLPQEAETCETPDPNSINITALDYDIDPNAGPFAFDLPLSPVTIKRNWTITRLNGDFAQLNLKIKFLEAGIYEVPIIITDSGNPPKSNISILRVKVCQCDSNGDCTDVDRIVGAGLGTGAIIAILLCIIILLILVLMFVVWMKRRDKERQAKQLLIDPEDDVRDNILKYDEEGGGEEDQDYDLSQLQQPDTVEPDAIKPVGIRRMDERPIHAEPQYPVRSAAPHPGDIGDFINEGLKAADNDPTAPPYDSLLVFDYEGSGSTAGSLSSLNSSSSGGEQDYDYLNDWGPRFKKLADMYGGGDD
UniProt P39905: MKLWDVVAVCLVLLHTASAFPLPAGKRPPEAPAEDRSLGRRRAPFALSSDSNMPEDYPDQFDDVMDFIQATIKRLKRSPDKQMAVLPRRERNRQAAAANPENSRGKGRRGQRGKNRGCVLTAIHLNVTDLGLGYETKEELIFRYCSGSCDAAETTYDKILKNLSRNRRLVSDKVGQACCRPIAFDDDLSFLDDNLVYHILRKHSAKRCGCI

Key:
[1] = target: precursor N-cadherin (proN-cadherin), over-expressed from the vector EF1A-proCDH2-IRES-EGFP (human) (UniProt P19022); test: co-IP; U251 cells (untransfected or pro-CDH2 transfected) treated with 50 ng/ml exogenous GDNF for 30 min, then cell membrane protein extract, 2 ug first antibody, protein A+G agarose, western blot; the precipitating antibody is not told; only the binder purified
[2] = target: precursor N-cadherin (proN-cadherin) (human (endogenous in U251)) (UniProt P19022); test: as above

binding [1]: binds | binding [2]: binds
Substance: exogenous glial cell line-derived neurotrophic factor (GDNF) (from UniProt P39905) (ligand)

Results are given in words; binding and its absence hold for the method and conditions named. In cells and extracts the contact can be indirect. A result given as binding can be weak or reduced; the word gives no strength.
